The list shows only some results of the screen, not a fair sample: it gathers tests that were run many times, whatever their T/C, doses with no T/C, and many T/C values between a quarter and a half above the control. Other doses and runs of a compound stand elsewhere. T/C: endpoint of the treated group in % of that of the vehicle group. Some doses have a count of surviving animals in place of a T/C: the source holds a T/C of zero for them, seemingly a mark for toxic or unscored doses. Some survivor counts are full or nearly so, which does not show that the dose was tolerated: survival well below the control is almost never listed, so the zero probably covers shortened survival too. Survivors were counted at the toxicity check, usually on the fifth day, unless a day is given; later deaths do not show. Schedules are NCI's codes, read here as Q, the interval in days (D) or hours (H), X, the number of doses. Some doses were run more than once; the results are listed from low to high. Where survival is the endpoint, this PubChem deposit counts one and a half times the control or more as active, and values a quarter to a half above the control carry no call in these data; other NCI protocols may use other cut-offs. Additions like (4×) give the number of equal values in this list.
System: CD2F1 mice, L1210 leukemia ip, survival T/C
Assay: NCI In Vivo Anticancer Drug Screen. Data for tumor model L1210 Leukemia (intraperitoneal) in CD2F1 (CDF1) mice
Details: higher T/C = longer survival
Description: The antitumor activity of compounds was measured in mice bearing transplantable tumors. Survival or tumor size were measured and the results are expressed as the measurement made in the treated group (T) divided by the measurement made in the vehicle treated control group (C). The tumor model used in this assay is L1210 Leukemia (intraperitoneal) in CD2F1 (CDF1) mice

[1] = T/C endpoint: mean survival time, dose: 200.0 mg/kg/injection, schedule: Q04DX002 (ip), vehicle: saline
[2] = T/C endpoint: mean survival time, dose: 400.0 mg/kg/injection, schedule: Q01DX009 (ip), vehicle: saline
[3] = T/C endpoint: mean survival time, dose: 400.0 mg/kg/injection, schedule: Q01DX009 (ip), vehicle: saline with Tween-80
[4] = T/C endpoint: mean survival time, dose: 100.0 mg/kg/injection, schedule: Q04DX003 (ip), vehicle: saline with Tween-80
[5] = T/C endpoint: mean survival time, dose: 200.0 mg/kg/injection, schedule: Q04DX003 (ip), vehicle: saline with Tween-80
[6] = T/C endpoint: mean survival time, dose: 400.0 mg/kg/injection, schedule: Q04DX003 (ip), vehicle: saline with Tween-80

SMILES: C=CCCCCCCCCC(=O)N1CCOCC1
- survivor count [1]: 1 of 3
- survivor count (T/C endpoint: mean survival time, dose: 400.0 mg/kg/injection, schedule: Q04DX002 (ip), vehicle: saline): 1 of 3

SMILES: NCc1ccc(O)c(O)c1
- T/C [2]: 125 % of control
- T/C (T/C endpoint: mean survival time, dose: 600.0 mg/kg/injection, schedule: Q01DX009 (ip), vehicle: saline): 129 and 137 % of control
- T/C (T/C endpoint: median survival time, dose: 75.0 mg/kg/injection, schedule: Q01DX009 (ip), vehicle: saline): 127 % of control
- T/C (T/C endpoint: median survival time, dose: 112.5 mg/kg/injection, schedule: Q03HX024 (ip), vehicle: saline): 128 % of control (2×)
- T/C (T/C endpoint: median survival time, dose: 150.0 mg/kg/injection, schedule: Q01DX009 (ip), vehicle: saline): 130 % of control
- T/C (T/C endpoint: median survival time, dose: 225.0 mg/kg/injection, schedule: Q03HX024 (ip), vehicle: saline): 130 % of control (2×)
- T/C (T/C endpoint: median survival time, dose: 300.0 mg/kg/injection, schedule: Q01DX009 (ip), vehicle: saline): 128 % of control
- T/C (T/C endpoint: median survival time, dose: 600.0 mg/kg/injection, schedule: Q01DX009 (ip), vehicle: saline): 142 % of control
- T/C (T/C endpoint: median survival time, dose: 800.0 mg/kg/injection, schedule: Q01DX009 (ip), vehicle: saline): 146 % of control

SMILES: CC(C)(O)C(=O)N/N=C/c1ccc(Cl)cc1
- survivor count [3]: 0 of 6

SMILES: CCCCN(CCCC)CC(O)c1ccc2cc(Cl)cc(Cl)c2n1 (stereo not given)
- survivor count [4]: 0 of 6
- survivor count [5]: 0 of 6
- survivor count [6]: 0 of 6

SMILES: OC1(C2(O)c3ccccc3Oc3ccccc32)c2ccccc2Oc2ccccc21
- survivor count [2]: 6 of 6

SMILES: COC(=O)C(Cc1ccccc1)NC(=O)C(CSCc1ccccc1)NC(=O)OCc1ccccc1 (stereo not given)
- survivor count (T/C endpoint: mean survival time, dose: 200.0 mg/kg/injection, schedule: Q01DX009 (ip), vehicle: saline with Tween-80): 6 of 6
- survivor count [3]: 6 of 6

SMILES: Cc1cc(O)c2c(c1O)C(=O)C13C(=C2O)C(=O)C2C(O)C1C1C(O)C3C(=O)C3=C(O)c4c(O)cc(C)c(O)c4C(=O)C321 (stereo not given)
- survivor count [4]: 5 of 6
- survivor count [5]: 3 of 6
- survivor count [6]: 5 of 6
- survivor count (T/C endpoint: median survival time, dose: 6.25 mg/kg/injection, schedule: Q01DX009 (ip), vehicle: saline with Tween-80): 1 of 6 and 2 of 6
- survivor count (T/C endpoint: median survival time, dose: 12.5 mg/kg/injection, schedule: Q01DX009 (ip), vehicle: saline with Tween-80): 0 of 6
- survivor count (T/C endpoint: median survival time, dose: 25.0 mg/kg/injection, schedule: Q01DX009 (ip), vehicle: saline with Tween-80): 0 of 6
- survivor count (T/C endpoint: median survival time, dose: 50.0 mg/kg/injection, schedule: Q01DX009 (ip), vehicle: saline with Tween-80): 0 of 6

SMILES: CSc1ccc(N2C(N)=NC(N)=NC2(C)C)cc1
- survivor count (T/C endpoint: mean survival time, dose: 100.0 mg/kg/injection, schedule: Q04DX002 (ip), vehicle: saline): 0 of 3
- survivor count [1]: 0 of 3

SMILES: CNCCNC1=C(Cl)C(=O)c2ccccc2C1=O
- survivor count (T/C endpoint: mean survival time, dose: 50.0 mg/kg/injection, schedule: Q04DX003 (ip), vehicle: saline with Tween-80): 0 of 6
- survivor count [4]: 0 of 6

SMILES: CCCC[n+]1ccccc1Cc1ccccc1
- survivor count (T/C endpoint: mean survival time, dose: 50.0 mg/kg/injection, schedule: Q04DX003 (ip), vehicle: saline): 0 of 3
- survivor count (T/C endpoint: mean survival time, dose: 100.0 mg/kg/injection, schedule: Q04DX003 (ip), vehicle: saline): 0 of 3

SMILES: CC(C(=O)c1ccccc1)C(c1ccccc1)N1CCCCC1 (stereo not given)
- survivor count (T/C endpoint: mean survival time, dose: 200.0 mg/kg/injection, schedule: Q01DX001 (ip), vehicle: saline with Tween-80): 6 of 6

SMILES: CCC/C=C(\C#N)C(=O)OC
- survivor count (T/C endpoint: mean survival time, dose: 150.0 mg/kg/injection, schedule: Q01DX001 (ip), vehicle: saline): 0 of 6
- survivor count (T/C endpoint: mean survival time, dose: 300.0 mg/kg/injection, schedule: Q01DX001 (ip), vehicle: saline): 0 of 6

SMILES: C=C(C)C1CCC2(COS(=O)(=O)c3ccc(C)cc3)CCC3(C)C(CCC4C5(C)CCC(OC6CCCCO6)C(C)(C)C5CCC43C)C12 (stereo not given)
- survivor count (T/C endpoint: mean survival time, dose: 100.0 mg/kg/injection, schedule: Q04DX002 (ip), vehicle: saline with Tween-80): 3 of 3

From PubChem BioAssay AID256 (DTP/NCI, 2004)
